In patent publication US9999620B2, “CaMKK-β as a target for treating cancer” (Duke University, priority 2010, dated 2018):
For at least one compound, name, drawing or mass did not settle the structure.

Tested on: AR-dependent CaMKKβ enhancer
Assay: CaMKKβ enhancer (fragments D and E) luciferase reporter gene assay
Assay type: cell-based, human
Settings: LNCaP; 30 min 10 mM Casodex, overnight R1881 0-10 nM

Compound: CC(O)(CS(=O)(=O)c1ccc(F)cc1)C(=O)Nc1ccc(C#N)c(C(F)(F)F)c1 (stereo not shown) [Casodex, Bicalutamide]
- androgen responsiveness of enhancer fragments D and E (luciferase): suppressed
